The text below walks through data of patent US20250000908A1, “METHODS FOR PREPARING AND ADMINISTERING CRYOPRESERVED PLATELETS AND PLATELET DERIVATIVES LOADED WITH ANTI-CANCER DRUGS” (Cellphire, Inc., priority 2023, published 2025).

In this experiment the test system is HepG2 cells. The experiment is described as follows: in vitro cytotoxicity against HepG2 cells by WST-1 assay. In kind it is cell-based, human. To be noted: HepG2, 48 hours of treatment, DOX equivalent concentration. As to the method:
Dox-CPP, and DOX-FPH were prepared by the method of Example 1. WST-1 assay is water-soluble tetrazolium salt assay that provides a mechanism to measure cell viability and cytotoxicity in cells. An increase in the number of viable cells leads to an increase in the activity of mitrochondrial dehydrogenases which in turn results in an increase in the amount of formazan dye produced. The formazan dye produced from WST-1 by viable cells is quantified by colorimetric measurement of the absorbance pf the dye at OD-44-nm. HepG2 cells were seeded on 96 well plates at a density of 5×10^3 per well. After 24 hours of incubation, DOX-CPP, DOX-FPH, Doxosome, and Free-DOX were mixed into fresh 0.5% FBS DMEM (ATCC-formulated Eagle's Minimum Essential Medium, catalog No. 30-2003) culture medium with equivalent DOX concentrations ranging from 0, 0.25, 2.5, 5, 10, and 20 μM. All DOX solutions were then added to the 96 well plates. Unloaded CPP and unloaded FPH were used as controls. After treatment for 48 hours, the cultured medium was removed and fresh 0.5% FBS DMEM medium containing WST-1 dye (90 μl medium plus 10 μl WST-1 reagent) was added to each well and incubated again for 2 hours at 37° C. The absorbance was measured at 440 nm using microplate reader and cell viability was expressed as a percentage of the untreated cells. All treatment groups had two replicates.
For orientation: Formazan colour is commonly taken as a measure of viable cells.

Take `COc1cccc2c1C(=O)c1c(O)c3c(c(O)c1C2=O)C[C@@](O)(C(=O)CO)C[C@@H]3O[C@H]1C[C@H](N)[C@H](O)[C@H](C)O1` [Free-DOX, doxorubicin]: the IC50 (usually the point on the concentration scale where inhibition reaches its midpoint) came to 4.3 µM.
